Measurements reported in patent US20260167692A1, “POLYPEPTIDES AND RELATED SUBSTANCES AGAINST HAIR LOSS AND DERMATITIS, AND USES THEREOF” (SHENZHEN INSTITUTES OF ADVANCED TECHNOLOGY, priority 2023, published 2026).
No constants are given. Whether binding was seen depends on the method and setting. Some results given as binding are weak or reduced against the parent protein; the word gives no strength.

T1: human GPR158 receptor (on HeLa cells highly expressing a GPR158 receptor) (human) (UniProt Q5T848)
T1 sequence (looked up): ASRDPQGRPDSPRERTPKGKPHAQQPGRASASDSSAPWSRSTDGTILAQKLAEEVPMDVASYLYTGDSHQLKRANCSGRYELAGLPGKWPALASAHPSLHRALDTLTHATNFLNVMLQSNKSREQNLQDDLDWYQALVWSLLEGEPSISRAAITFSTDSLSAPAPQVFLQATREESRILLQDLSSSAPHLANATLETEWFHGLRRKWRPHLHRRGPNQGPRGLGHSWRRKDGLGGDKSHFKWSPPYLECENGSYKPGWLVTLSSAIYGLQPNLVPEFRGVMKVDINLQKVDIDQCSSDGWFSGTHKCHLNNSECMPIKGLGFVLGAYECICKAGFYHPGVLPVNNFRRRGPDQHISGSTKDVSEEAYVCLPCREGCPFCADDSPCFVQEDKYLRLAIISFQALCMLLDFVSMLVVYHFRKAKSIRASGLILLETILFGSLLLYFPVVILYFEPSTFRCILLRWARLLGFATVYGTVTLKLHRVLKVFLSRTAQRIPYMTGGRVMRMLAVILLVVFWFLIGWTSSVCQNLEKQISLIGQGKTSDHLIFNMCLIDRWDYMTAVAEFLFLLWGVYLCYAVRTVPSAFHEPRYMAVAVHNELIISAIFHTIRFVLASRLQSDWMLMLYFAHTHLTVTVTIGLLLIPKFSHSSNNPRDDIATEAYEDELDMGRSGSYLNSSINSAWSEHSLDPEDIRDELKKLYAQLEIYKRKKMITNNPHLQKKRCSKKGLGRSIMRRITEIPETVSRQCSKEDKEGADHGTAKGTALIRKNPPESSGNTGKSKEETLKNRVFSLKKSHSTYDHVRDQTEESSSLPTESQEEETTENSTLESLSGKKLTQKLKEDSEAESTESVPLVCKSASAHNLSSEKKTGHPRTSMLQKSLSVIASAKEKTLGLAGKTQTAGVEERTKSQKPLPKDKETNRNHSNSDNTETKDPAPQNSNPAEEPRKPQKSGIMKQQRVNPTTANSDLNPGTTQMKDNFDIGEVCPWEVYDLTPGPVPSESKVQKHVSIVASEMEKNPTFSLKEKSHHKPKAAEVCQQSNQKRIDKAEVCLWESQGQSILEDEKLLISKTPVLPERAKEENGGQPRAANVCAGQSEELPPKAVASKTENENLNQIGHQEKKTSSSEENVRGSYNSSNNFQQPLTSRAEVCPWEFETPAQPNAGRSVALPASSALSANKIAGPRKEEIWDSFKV

B1: Bird species-polypeptide (osteocalcin-derived peptide derived from a mandarin duck) (peptide)
peptide: SDFYERYFMHYKTPMEQM
B2: osteocalcin-derived peptide of SEQ ID NO.5 (peptide)
peptide: SNLRNAVFGTPVRDPLESK
B3: osteocalcin-derived peptide derived from a mouse (mO15) (peptide)
peptide: YLGASVPSPDPLEPT
B4: osteocalcin-derived peptide of SEQ ID NO.4 (peptide)
peptide: NYNRFYNARAAPTPDPLEPL
B5: Livestock species-polypeptide (osteocalcin-derived peptide derived from a sheep) (peptide)
peptide: LDPGLGAPAPYPDPLEPR
B6: Poultry species-polypeptide (osteocalcin-derived peptide derived from a chicken) (peptide)
peptide: YAQDSGVAGAPPNPLEAQ
B7: Bony fish species-polypeptide (osteocalcin-derived peptide derived from a Wuchang fish) (peptide)
peptide: AGAVTAADLSLTQLESL

molecular target: T1, human GPR158 receptor (on HeLa cells highly expressing a GPR158 receptor) (human); assay: binding rate to HeLa cells highly expressing GPR158, in vitro culture with the polypeptide

binding, binds:
B1, B2, B3, B4, B5, B6, B7
